From PubChem BioAssay AID540275 (National Center for Advancing Translational Sciences (NCATS), 2011)
About 620 (0.19%) of roughly 320,000 compounds were called active. The inconclusive results got no clear call from the source; some entries with a clear call stand among them for comparison. No stated cut-off is given here; in the data, active means activation above about 80%; inconclusive means between about 30% and that limit; inactive means weaker than that.

Chains of the proteins cited; added tags and fusions are not shown.
UniProt Q8NER1, whole entry, looked up: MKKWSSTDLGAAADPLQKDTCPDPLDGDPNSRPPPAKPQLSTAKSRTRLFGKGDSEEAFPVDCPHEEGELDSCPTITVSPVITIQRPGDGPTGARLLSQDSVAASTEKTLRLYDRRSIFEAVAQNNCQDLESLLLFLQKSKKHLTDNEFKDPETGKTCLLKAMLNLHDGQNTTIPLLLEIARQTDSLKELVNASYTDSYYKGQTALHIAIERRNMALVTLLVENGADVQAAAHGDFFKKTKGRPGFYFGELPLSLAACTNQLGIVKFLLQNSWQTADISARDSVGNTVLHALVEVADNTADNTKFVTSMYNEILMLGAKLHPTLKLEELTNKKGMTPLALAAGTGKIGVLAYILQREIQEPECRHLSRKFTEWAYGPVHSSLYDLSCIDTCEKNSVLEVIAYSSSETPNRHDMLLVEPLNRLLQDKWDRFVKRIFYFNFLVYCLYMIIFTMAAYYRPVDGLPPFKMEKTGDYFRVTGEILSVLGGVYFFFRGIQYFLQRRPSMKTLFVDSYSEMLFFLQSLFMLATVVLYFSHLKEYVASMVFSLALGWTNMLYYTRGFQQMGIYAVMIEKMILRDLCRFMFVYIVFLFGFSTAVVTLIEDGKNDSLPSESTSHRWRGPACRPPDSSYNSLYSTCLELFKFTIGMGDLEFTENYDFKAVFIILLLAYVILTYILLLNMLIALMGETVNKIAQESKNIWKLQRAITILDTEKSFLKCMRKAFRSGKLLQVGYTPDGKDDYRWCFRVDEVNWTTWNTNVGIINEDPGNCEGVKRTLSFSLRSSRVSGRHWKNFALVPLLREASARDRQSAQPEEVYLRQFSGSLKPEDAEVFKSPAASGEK

biological target: Transient receptor potential cation channel subfamily V member 1 (Homo sapiens) (UniProt Q8NER1); test: HTS Assay for Compounds that Act as Agonists of the Vanilloid Receptor 1; settings: TRPV1-expressing cells, Fluo-8 calcium influx, agonist mode; at 8.33 µM, stronger effect = higher value; further: 0% is about no effect
Outline: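 Fluo-8 calcium influx in TRPV1-expressing cells, kinetic read (ex 480/em 520 nm). Compound added and read 3 min for agonist activity, followed by capsaicin at EC20 final and 2 min further read for enhancement.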

Row | SMILES | activation
1 | COC(=O)c1[nH]c2cc(C)ccc2c1NC(=O)CN1CCCc2ccccc21 | inconclusive: 53.6%
2 | CC(C)(C)OC(=O)n1cc(/C=N/NC(=O)c2ccco2)c2ccccc21 | inconclusive: 65.8%
3 | Cc1cc(OCC(=O)NCc2ccncc2)ccc1Cl | inconclusive: 63.5%
4 | CN(CC(=O)Nc1ccccc1Oc1ccccc1)Cc1ccccc1F | inconclusive: 32.1%
5 | COC(=O)CNc1nc(-c2ccccc2F)nc2ccccc12 | inactive: 1.17%
6 | Cc1nn(Cc2ccccc2)c(C)c1/C=N/NC(=O)c1ccncc1 | inactive: 2.95%
7 | O=C(Nc1ccc2c3c(cccc13)CC2)c1ccc(Br)o1 | active: 84.9%
8 | CC(=O)Nc1ccc(SC[C@H](Cc2ccccc2)N2CC[C@@H](C(C)(C)C)CCC2=O)cc1 | inconclusive: 72.1%
9 | O=C1C=C(/C=C/C2C=CC=CC2)C[C@@H](c2ccc(Cl)cc2)C1 (stereo partly specified) | inconclusive: 40.9%
10 | O=C(C1=NN[C@@H]2C(=O)N(c3cccc(F)c3)C(=O)[C@H]12)C(c1ccccc1)c1ccccc1 | inconclusive: 35.2%
11 | CCOc1ccc(Oc2ccc(NC(=O)[C@@H](NC(N)=O)[C@@H](C)CC)cc2)cc1 | inactive: 1.32%
12 | O=C(CCCn1c(=S)[nH]c2cc3c(cc2c1=O)OCO3)N1CCN(c2ccc(Cl)cc2)CC1 | inactive: -1.9%
13 | Cc1ccc(-n2c(C)nnc2SCC(=O)N2CCc3ccccc3C2)cc1C | inconclusive: 38.1%
14 | CCNc1nc(Nc2ccc(C)c(Cl)c2)c2cnn(C)c2n1 | inconclusive: 59.7%
15 | CCOc1ccccc1N1CCN(C(=O)NC2CCCCC2)CC1 | inconclusive: 49.8%
16 | O=c1c2ccccc2nc(/C=C/c2cccc([N+](=O)[O-])c2)n1CCO | inconclusive: 30.7%
17 | COc1ccc(CNC(=O)COc2cc(O)c3c(c2)OC(C)(C)CC3=O)cc1 | inconclusive: 72.7%
18 | COc1ccc(Nc2cc(C)nc(N3CCOCC3)n2)cc1 | inconclusive: 33.5%
19 | CCc1cccc(NC(=O)CSc2nc3ccccc3nc2N2CCCCC2)c1 | inconclusive: 56.3%
20 | CCOc1cc(S(=O)(=O)Nc2ccccc2CC)ccc1Cl | inconclusive: 31.3%
21 | O=C(Nc1ccc(S(=O)(=O)N2CCOCC2)cc1)c1ccc(Cl)cc1 | inconclusive: 57.7%
22 | O=C1CSCC(=O)N1Cc1ccc(Cl)cc1Cl | inconclusive: 33%
23 | Nc1nc(SCC(=O)c2ccc(Br)s2)n[nH]1 | inconclusive: 40.7%

Among those listed so far, these have an aryl thioether with sulfur outside any ring:
Row | SMILES | activation
8 | CC(=O)Nc1ccc(SC[C@H](Cc2ccccc2)N2CC[C@@H](C(C)(C)C)CCC2=O)cc1 | inconclusive: 72.1%
13 | Cc1ccc(-n2c(C)nnc2SCC(=O)N2CCc3ccccc3C2)cc1C | inconclusive: 38.1%
19 | CCc1cccc(NC(=O)CSc2nc3ccccc3nc2N2CCCCC2)c1 | inconclusive: 56.3%
23 | Nc1nc(SCC(=O)c2ccc(Br)s2)n[nH]1 | inconclusive: 40.7%

Continued.

Row | SMILES | activation
24 | O=C(Cn1c(/C=C/c2ccccc2)nc2ccccc21)Nc1ccc(F)cc1 | inactive: 4.79%
25 | COc1ccc(-n2c(SCC(=O)NCc3ccco3)nc3c([nH]c4ccccc43)c2=O)cc1 | inactive: -2.68%
26 | Cc1ccc(Oc2ncnc(N)c2[N+](=O)[O-])cc1C | inactive: 2.7%
27 | OC(CNCC1CCCO1)Cn1c2ccc(Cl)cc2c2cc(Cl)ccc21 (stereo unspecified) | inactive: 5.19%
28 | O=C(CCS(=O)(=O)c1ccc(F)cc1)Nc1nc(-c2ccccn2)cs1 | inactive: -3.18%
29 | O=C(NCc1ccncc1)C(=O)NCC(c1ccco1)N1CCN(c2ccccc2)CC1 (stereo unspecified) | inactive: 12.8%
30 | Cn1ncc(Br)c1C(=O)N/N=C/c1ccc(OS(=O)(=O)c2ccccc2)cc1 | inconclusive: 35.7%
31 | CC(Oc1ccc(C#N)cc1)C(=O)Nc1ccc(-n2cnnn2)cc1 (stereo unspecified) | inconclusive: 39.6%
32 | O=C(CNCc1ccco1)Nc1ccc(Oc2ccccc2)cc1 | inconclusive: 42.5%
33 | CCc1ccc(N2CC(C(=O)OCC(=O)c3c(N)n(CC(C)C)c(=O)n(C)c3=O)CC2=O)cc1 (stereo unspecified) | inactive: 3.55%
34 | Nc1nc2nc(-c3ccccc3)cc(C(F)(F)F)c2s1 | inactive: 0.367%
35 | N=c1n(CC(=O)c2cccc([N+](=O)[O-])c2)c2ccccc2n1Cc1ccccc1 | inactive: 3.34%
36 | N=C1C(c2nc3ccccc3s2)=C(O)CN1c1ccccc1 | inconclusive: 41.5%
37 | C=CCN(c1ccccc1)S(=O)(=O)c1cccc(C(=O)Nc2cc(C)ccn2)c1 | inconclusive: 65.3%
38 | Cc1ccc(S(=O)(=O)N(CC(=O)N2CCC(C)CC2)c2cccc(C)c2)cc1 | inconclusive: 54.9%
39 | CC[N+](CC)(CC)CC(=O)Nc1ccc(SC(F)F)cc1 | inactive: -1.61%
40 | COc1ccccc1CCN1CCCC(CN(C)C(=O)c2ccoc2)C1 (stereo unspecified) | inactive: 5.9%
41 | CCCc1nc(NCC2CCCO2)c2nnn(Cc3ccccc3)c2n1 (stereo unspecified) | inconclusive: 30.5%
42 | O=C(CCSc1ccccc1)NC1CCCCCC1 | inconclusive: 38%
43 | CC(NC(=O)COC(=O)CC(c1ccccc1)c1ccccc1)c1ccccc1 (stereo unspecified) | inconclusive: 44.4%
44 | CCOC(=O)c1cc(C#N)c(Nc2ccc(C)cc2)nc1C(F)(F)F | inconclusive: 58.3%
45 | CC(=O)c1nc2ccccc2n1CCc1ccccc1 | inconclusive: 44.8%
46 | O=C(Nc1nccs1)c1cc2c(s1)-c1ccccc1OC2 | inactive: -0.282%

Row | SMILES | activation
47 | COc1ccc(CNC(=O)c2ccc(C(C)C)cc2)cc1 | inconclusive: 44.8%
48 | Cc1cc(N/N=C/c2ccccc2)nc(N2CCOCC2)n1 | active: 85.5%
49 | NC(=O)C1CCN(C(=O)c2cc3n(n2)C(C(F)(F)F)CC(c2ccco2)N3)CC1 (stereo unspecified) | inactive: 4.76%
50 | Cc1ccc(NC(=O)c2ccc(S(=O)(=O)N3CCOCC3)cc2)c(C)c1 | inconclusive: 40.4%
51 | CCCCn1nc(NC(=O)COC)c2cc3ccc(C)cc3nc21 | active: 88.8%
52 | Cc1ccc(Nc2ncnc3sc(C)c(C)c23)cc1C | inconclusive: 61.2%
53 | O=C1c2ccccc2N2C(=O)c3ccccc3C2N1Cc1ccco1 (stereo unspecified) | inactive: 6.04%
54 | COc1cccc(NC(=O)CN(C)C(=O)c2cc(-c3ccc(F)cc3)nc3ccccc23)c1 | inactive: -2.09%
55 | O=C(CSCc1ccc(Cl)cc1)Nc1ccc(S(=O)(=O)N2CCOCC2)cc1 | inconclusive: 43.9%
56 | CCOC(=O)c1cc(-c2ccccc2)nc2c1c(C)nn2-c1ccccn1 | inconclusive: 57.7%
57 | CC(C)Oc1ccc(C(CC(=O)NCc2ccco2)c2ccccc2)cc1 (stereo unspecified) | inconclusive: 33.5%
58 | Cc1cc(C)c(C#N)c(SCC(=O)CC(=O)OC(C)C)n1 | inactive: 2.76%
59 | Cc1onc(-c2ccccc2)c1CNC(=O)Nc1cccc(Cl)c1 | inconclusive: 39.2%
60 | CC1(C)CC(=O)c2cc(C(=O)N3CCN(CCO)CC3)c(=O)n(-c3ccc(Cl)cc3)c2C1 | inactive: -1.16%
61 | CCOC(=O)[C@H]1[C@H]2COc3ccc(C)cc3[C@@H]2N2C(=O)c3cc(F)ccc3NC(=O)[C@@]12C | active: 91.3%
62 | CCCCc1cc(=O)oc2c(CN3CCCC3)c(O)c(Cl)cc12 | inactive: -0.445%
63 | O=C(Nc1ccccc1Oc1cccnc1)C1CCCN(Cc2ccccc2O)C1 (stereo unspecified) | inactive: 11.1%
64 | c1ccc(-c2c[nH]c3[n+]2CCCCC3)cc1 | inconclusive: 32.6%
65 | O=C(NCc1cccnc1)c1cc(-c2ccc(Cl)cc2)oc1C(F)(F)F | inconclusive: 65.2%
66 | COc1ccc(Cl)cc1NC(=S)NNC(=O)c1cccs1 | inactive: 0.375%
67 | CC1CCN(C(=O)Cn2nnc(-c3ccc(C(C)C)cc3)n2)CC1 | inconclusive: 33.8%
68 | Cc1ccccc1NC(=O)CNc1ccccc1N1CCCCC1 | inconclusive: 30.3%
69 | O=S(=O)(/N=C(/Nc1cccc2ccccc12)c1ccccc1)c1ccccc1 | inconclusive: 37.4%

Row | SMILES | activation
70 | O=C(NCCN1CCOCC1)c1cc(-c2ccc(Cl)cc2Cl)on1 | inconclusive: 37.3%
71 | CCn1cc(/C=N\NC(=O)Cc2ccc(Cl)cc2)cn1 | inactive: -8.02%
72 | CN(CC(=O)Nc1ccc(OC(F)(F)F)cc1)C(=O)c1ccc(N2CCCC2=O)cc1 | inactive: -0.755%
73 | CCN(CC)CC(=O)N1c2ccccc2Sc2ccccc21 | inactive: -2.84%
74 | Cc1cccc(N2CCN(C(=O)NC3CCCCC3)CC2)c1C | inconclusive: 64.5%
75 | Cc1ccc(-c2nc3ccccc3c(C(=O)NCc3cccs3)c2C)cc1 | inconclusive: 36%
76 | O=C(CN1CCOCC1)Nc1nc(-c2ccccc2Cl)cs1 | inconclusive: 73.5%
77 | COc1ccc(C2C=C(c3ccc(F)cc3)NC(=S)N2)cc1OC (stereo unspecified) | inactive: 3.43%
78 | COCCCNc1nc(CC(C)C)nc2c1nnn2Cc1ccccc1 | inconclusive: 34.1%
79 | CC(OC(=O)c1ccc(S(=O)(=O)NCc2ccco2)cc1)C(=O)Nc1ccc(Cl)cn1 (stereo unspecified) | inactive: -3.64%
80 | COc1cc(C)c(C(=O)Oc2cc(C)c(C(=O)O)c(O)c2C)c(OC)c1C | inactive: -5.23%
81 | Cc1c(C)c2ccc(OCC(=O)N3CCOCC3)c(C)c2oc1=O | inconclusive: 57%
82 | O=C(Cn1cccc1C(=O)c1ccccc1)NCCC1=CCCCC1 | inconclusive: 50.1%
83 | COc1cc(NC(=O)c2ccccc2)c(OC)cc1NC(=O)Cc1ccc(F)cc1 | inconclusive: 33%
84 | CC(Sc1nc2ccccc2s1)C(=O)N1CCOCC1 (stereo unspecified) | inconclusive: 52.7%
85 | NNC(=O)c1csc(-c2ccc(C(F)(F)F)cc2Cl)n1 | inconclusive: 32.6%
86 | Cc1[nH]c2ccc(C(=O)Nc3ccncc3)cc2c1C | inactive: 3.13%
87 | CCc1ccc(NC(=O)c2ccc3ncsc3c2)cc1 | active: 85.7%
88 | NS(=O)(=O)c1ccc(CCNC(=O)CSc2ccc(Cl)cc2Cl)cc1 | inconclusive: 38.5%
89 | Cc1ccc(C(=O)Nc2ncc(C)s2)s1 | inconclusive: 56.7%
90 | Cc1ccc(C)c(/C(O)=C2\C(=O)C(=O)N(Cc3cccnc3)C2c2cccnc2)c1 (stereo unspecified) | inactive: -6.1%
91 | Cc1cc2oc(=O)cc(CN3CCCCC3C)c2cc1C(C)C (stereo unspecified) | inconclusive: 51.5%
